# The other results are listed elsewhere or left out. Shown are side measurements of this screen, not its main read-out; they come without a call. Most of these compounds were active or inconclusive in the main read-out, so they are no random draw. Potencies come from curve fits of mixed quality, noted in brackets.
# Assay: Cell signaling CRE-BLA (Fsk stim)
# Details: CHO CRE-bla reporter (cAMP response element driving beta-lactamase), forskolin EC10, beta-lactamase ratio; measured here: 460 nm blue channel
# Procedure, shortened: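 Reporter-gene assay: CHO cells with beta-lactamase behind cAMP responsive elements, co-treated with compound and EC10 NKH 477 for 3 hours at 37 degrees Celsius. Activity came from the 460/530 nm CCF4 emission ratio.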
row,Structure (SMILES),AC50
1,Cn1c(C(=O)NCCN2CCc3ccccc3C2)cc2c(=O)n(C)c3ccccc3c21,"5.01 µM [rising, partial curve]"
2,COc1ccc(Nc2ncnc3c2cnn3Cc2ccccc2)cc1OC,"7.94 µM [rising, partial curve]"
3,COc1ccccc1N1CCN(C(CNS(=O)(=O)c2ccc(C)cc2)c2cccnc2)CC1 (configuration not stated),"1.26 µM [rising, partial curve]"
4,COc1cccc(OCC(=O)Nc2ccccc2NC(C)=O)c1,"0.126 µM [falling, full curve]"
5,O=C(NCCc1nc2ccccc2[nH]1)c1ccco1,"5.01 µM [falling, single point]"
6,N#Cc1c(N)nc2c(c1-c1ccncc1)CCCCC2,"10 µM [rising, partial curve]"
7,O=C1c2ccccc2S(=O)(=O)N1CC(O)Cn1c2ccccc2c2ccccc21 (configuration not stated),"12.6 µM [falling, single point]"
8,COc1ccc(C(=O)Nc2ccccc2C(=O)NCc2ccco2)cc1OC,"10 µM [rising, single point]"
9,O=C(CSc1ncccn1)NCCc1ccccc1,"1.58 µM [falling, partial curve]"
10,CCn1c(SCC(=O)Nc2ccc3c(c2)OCCO3)nnc1-c1ccccn1,"3.16 µM [rising, partial curve]"
11,COc1cccc(-n2nnc3c(=O)n(Cc4ccc(C)cc4)cnc32)c1,"12.6 µM [rising, single point]"
12,CCNc1ccc(C(=O)OCC)cc1NC(=O)c1cccc(N(C)C)c1,"12.6 µM [rising, single point]"
13,CCOC(=O)CCCn1nc(C)n2c(cc3sccc32)c1=O,"7.94 µM [rising, partial curve]"
14,Cc1cc(C)n(-c2ccc(Cl)c(C(=O)Nc3ccc(-c4nnc5n4CCCCC5)cc3)n2)n1,"10 µM [rising, single point]"
15,Cc1ccc(-c2nnc3n2N=C(c2ccccc2Br)CS3)cc1,"10 µM [rising, partial curve]"
16,CC(C)CC(=O)NC1(C(F)(F)F)C(=O)Nc2c1c(=O)[nH]c(=O)n2Cc1ccco1 (configuration not stated),"12.6 µM [falling, single point]"
17,O=C(O)CCCC(=O)Nc1ccc(N2CCCC2)cc1,"25.1 µM [rising, single point]"
18,O=c1c2ccccc2nc(SCc2cn3ccsc3n2)n1-c1ccc(F)cc1,"2.51 µM [rising, full curve]"
19,CNC(=O)CSc1nnc(CCc2ccccc2)n1-c1ccccc1,"0.0631 µM [rising, full curve]"
20,Cc1nn(-c2cccc(Cl)c2)c2c1C(c1cccnc1)C(C#N)=C(N)O2 (configuration not stated),"12.6 µM [falling, single point]"
21,CS(=O)(=O)Nc1cccc(-c2ccc3ncnc(N4CCOCC4)c3c2)c1,"5.01 µM [rising, partial curve]"
22,Cc1ccc(S(=O)(=O)c2nc(S(C)(=O)=O)sc2NCC2CCCO2)cc1 (configuration not stated),"0.316 µM [rising, partial curve, poor fit]"
23,CCOC(=O)c1c(NC(N)=O)sc(C)c1C,"12.6 µM [rising, partial curve]"

row,Structure (SMILES),AC50
1,O=c1c(-c2cccc(Cl)c2)nc2cncnc2n1-c1ccccc1,"10 µM [rising, partial curve]"
2,COC(=O)c1c(C)n(-c2ccccc2)c2ccc(O)cc12,"15.8 µM [rising, single point]"
3,CCOC(=O)N1CCN(S(=O)(=O)c2ccc(F)c(C(=O)Nc3cccc(C)c3C)c2)CC1,"7.94 µM [rising, partial curve]"
4,Cc1onc(-c2ccccc2)c1C(=O)Nc1cc(C(F)(F)F)ccc1N1CCOCC1,"12.6 µM [rising, single point]"
5,CC(NC(=O)COc1ccccc1)C(=O)NC1=NCCS1 (configuration not stated),"0.00316 µM [falling, full curve, poor fit]"
6,O=S(=O)(c1cccs1)N1CN(Cc2cccs2)c2nc3ccccc3nc21,"12.6 µM [rising, single point]"
7,COCCCN1CN(S(=O)(=O)c2ccc(Cl)cc2)c2nc3ccccc3nc21,"10 µM [rising, single point]"
8,CCOc1ccccc1C1CC(=O)Nc2cc3c(cc21)OCCO3 (configuration not stated),"10 µM [rising, partial curve]"
9,COc1cc(NC(=O)Nc2ccccc2OC)c(OC)cc1NC(=O)CN1CCCCC1,"12.6 µM [rising, partial curve]"
10,O=C1CCc2cc(S(=O)(=O)NCCC(=O)N3CCN(c4cccc(Cl)c4)CC3)ccc2N1,"31.6 µM [falling, partial curve, poor fit]"
11,CN(C)c1ccc(/C=C/c2cc[n+]([O-])cc2)cc1,"10 µM [rising, partial curve]"
12,CCOC(=O)c1cnc(SCc2ccc(C)cc2)nc1N,"25.1 µM [rising, single point]"
13,COCCn1c(=O)c(-c2ccc(OC)cc2)nc2cnc(Nc3ccccc3)nc21,"0.501 µM [rising, full curve]"
14,COc1ccc(C)cc1NC(=O)CN(C)S(=O)(=O)c1cccs1,"0.501 µM [falling, full curve, poor fit]"
15,O=C(CN1CCN(C(=O)c2ccco2)CC1)Nc1ccc(Cl)c(C(F)(F)F)c1,"5.01 µM [falling, partial curve]"
16,COC(=O)NC1CSCC1OC(=O)CCN1C(=O)c2ccccc2C1=O (configuration not stated),"0.00631 µM [falling, full curve, poor fit]"
17,CCOc1cc(NC(=O)c2ccco2)c(OCC)cc1NC(=O)Cc1cccc(OC)c1,"12.6 µM [rising, partial curve]"
18,CCOC(=O)c1cc2n(c1N)-c1ccccc1C2=O,"12.6 µM [rising, partial curve]"
19,N#Cc1c(NC(=O)c2cc(C3CC3)on2)sc2c1CCC2,"15.8 µM [rising, partial curve]"
20,COc1cccc(CNc2nn[nH]n2)c1OC,"0.00398 µM [falling, full curve, poor fit]"
21,O=C(NCC(c1cccnc1)N1CCN(c2ccccc2F)CC1)C1CCCCC1 (configuration not stated),"0.01 µM [falling, full curve, poor fit]"
22,CCOC(=O)c1c(NC(=O)c2ccc(S(=O)(=O)N3CCOCC3)cc2)sc2c1CCN(C)C2,"10 µM [rising, partial curve]"
23,O=C(Nc1cccc2nsnc12)c1ccc2c(c1)OCCO2,"12.6 µM [rising, partial curve]"

row,Structure (SMILES),AC50
1,CC(=O)Nc1ccc(NC(=O)C2CCCN(c3nnc(-n4cccc4)s3)C2)cc1 (configuration not stated),"20 µM [rising, single point]"
2,Nc1nc(COc2ccc3ccccc3c2)cs1,"0.00316 µM [rising, full curve, poor fit]"
3,O=C(NCc1ccccn1)C1CCCN(Cc2cnn(-c3ccccc3)c2-n2cccc2)C1 (configuration not stated),"5.01 µM [rising, partial curve, poor fit]"
4,Cn1c(=O)c2cc(S(=O)(=O)NCCC(=O)NCC3CCCO3)ccc2n(C)c1=O (configuration not stated),"0.2 µM [rising, full curve]"
5,O=C(Cn1c(=O)sc2ccccc21)Nc1ccc(S(=O)(=O)N2CCCC2)cc1,"0.398 µM [falling, single point]"
6,Cc1ccc(-c2noc(CN(C(=O)c3cccc(Br)c3)C(C)C)n2)cc1,"12.6 µM [falling, partial curve]"
7,COc1ccc(NC(=O)CSc2nnc(Cc3cccn3C)n2-c2ccc(C)cc2)cc1OC,"7.94 µM [falling, partial curve]"
8,COc1ccc(-c2nc3cnc(N4CCNCC4)nc3n(C)c2=O)cc1,"5.01 µM [rising, partial curve]"
9,O=C(CCn1nc(-c2ccc(Cl)cc2)ccc1=O)NCCCN1CCCCCC1,"25.1 µM [rising, single point]"
10,COC(=O)c1cc(OC)c(OC)cc1-n1cnc2cc(OC)c(OC)cc2c1=O,"15.8 µM [rising, single point]"
11,COc1ccccc1NC(=O)c1sc2nc(-c3ccco3)ccc2c1N,"12.6 µM [falling, partial curve]"
12,CCCCn1c(SCC(=O)Nc2cccc(OC)c2)nc2ccc(N3CCOCC3)cc2c1=O,"10 µM [rising, single point]"
13,C/C=C/COC(=O)c1[nH]c2c(c1C)C(=O)CC(c1ccco1)C2 (configuration not stated),"1.26 µM [rising, full curve]"
14,COc1ccc(-n2c(NC(=O)c3ccco3)c(C#N)c3nc4ccccc4nc32)cc1,"7.94 µM [rising, partial curve]"
15,CN(CC(=O)Nc1ccc(F)c(F)c1)S(=O)(=O)c1cccc2nsnc12,"2.51 µM [falling, single point]"
16,COc1ccc(-n2ncc3c(NCc4cccs4)ncnc32)cc1,"7.94 µM [rising, partial curve]"
17,CC1(C)CC(=O)CC(=Nc2ccc3[nH]c(=O)[nH]c3c2)C1,"3.98 µM [rising, single point]"
18,O=C(CSc1nc(-c2ccco2)cc(C(F)(F)F)n1)Nc1ccc(C(=O)N2CCCCC2)cc1,"12.6 µM [rising, partial curve]"
19,Cc1ccc(-c2ccc(=O)n(CC(=O)Nc3cccc(C(=O)N4CCN(C)CC4)c3)n2)cc1,"25.1 µM [rising, single point]"
20,CN(Cc1ccco1)c1nc(-c2cccnc2)nc2ccccc12,"5.01 µM [rising, full curve]"
21,CCCc1nc2ccccc2c(C(=O)OCc2nnc(-c3cc(OC)c(OC)c(OC)c3)o2)c1CC,"1 µM [rising, single point]"

# 3 compounds out of the list, ordered by number of heavy atoms, rising.
row,Structure (SMILES),AC50
4,Cn1c(=O)c2cc(S(=O)(=O)NCCC(=O)NCC3CCCO3)ccc2n(C)c1=O (configuration not stated),"0.2 µM [rising, full curve]"
3,O=C(NCc1ccccn1)C1CCCN(Cc2cnn(-c3ccccc3)c2-n2cccc2)C1 (configuration not stated),"5.01 µM [rising, partial curve, poor fit]"
12,CCCCn1c(SCC(=O)Nc2cccc(OC)c2)nc2ccc(N3CCOCC3)cc2c1=O,"10 µM [rising, single point]"

# Reference: PubChem BioAssay AID662 (National Center for Advancing Translational Sciences (NCATS), 2007)
